Test results published in PMC7595586.
Results are given in words; binding and its absence hold for the method and conditions named. Binding seen in cells or lysates may run through a third protein. A yes stands for co-enrichment or nearness to the bait. Other partners may have been found. For part of these data: A no says only that the protein was not detected with the bait.

Protein sequences, listed by entry. Tags and fused reporters are not part of them.
UniProt O42900: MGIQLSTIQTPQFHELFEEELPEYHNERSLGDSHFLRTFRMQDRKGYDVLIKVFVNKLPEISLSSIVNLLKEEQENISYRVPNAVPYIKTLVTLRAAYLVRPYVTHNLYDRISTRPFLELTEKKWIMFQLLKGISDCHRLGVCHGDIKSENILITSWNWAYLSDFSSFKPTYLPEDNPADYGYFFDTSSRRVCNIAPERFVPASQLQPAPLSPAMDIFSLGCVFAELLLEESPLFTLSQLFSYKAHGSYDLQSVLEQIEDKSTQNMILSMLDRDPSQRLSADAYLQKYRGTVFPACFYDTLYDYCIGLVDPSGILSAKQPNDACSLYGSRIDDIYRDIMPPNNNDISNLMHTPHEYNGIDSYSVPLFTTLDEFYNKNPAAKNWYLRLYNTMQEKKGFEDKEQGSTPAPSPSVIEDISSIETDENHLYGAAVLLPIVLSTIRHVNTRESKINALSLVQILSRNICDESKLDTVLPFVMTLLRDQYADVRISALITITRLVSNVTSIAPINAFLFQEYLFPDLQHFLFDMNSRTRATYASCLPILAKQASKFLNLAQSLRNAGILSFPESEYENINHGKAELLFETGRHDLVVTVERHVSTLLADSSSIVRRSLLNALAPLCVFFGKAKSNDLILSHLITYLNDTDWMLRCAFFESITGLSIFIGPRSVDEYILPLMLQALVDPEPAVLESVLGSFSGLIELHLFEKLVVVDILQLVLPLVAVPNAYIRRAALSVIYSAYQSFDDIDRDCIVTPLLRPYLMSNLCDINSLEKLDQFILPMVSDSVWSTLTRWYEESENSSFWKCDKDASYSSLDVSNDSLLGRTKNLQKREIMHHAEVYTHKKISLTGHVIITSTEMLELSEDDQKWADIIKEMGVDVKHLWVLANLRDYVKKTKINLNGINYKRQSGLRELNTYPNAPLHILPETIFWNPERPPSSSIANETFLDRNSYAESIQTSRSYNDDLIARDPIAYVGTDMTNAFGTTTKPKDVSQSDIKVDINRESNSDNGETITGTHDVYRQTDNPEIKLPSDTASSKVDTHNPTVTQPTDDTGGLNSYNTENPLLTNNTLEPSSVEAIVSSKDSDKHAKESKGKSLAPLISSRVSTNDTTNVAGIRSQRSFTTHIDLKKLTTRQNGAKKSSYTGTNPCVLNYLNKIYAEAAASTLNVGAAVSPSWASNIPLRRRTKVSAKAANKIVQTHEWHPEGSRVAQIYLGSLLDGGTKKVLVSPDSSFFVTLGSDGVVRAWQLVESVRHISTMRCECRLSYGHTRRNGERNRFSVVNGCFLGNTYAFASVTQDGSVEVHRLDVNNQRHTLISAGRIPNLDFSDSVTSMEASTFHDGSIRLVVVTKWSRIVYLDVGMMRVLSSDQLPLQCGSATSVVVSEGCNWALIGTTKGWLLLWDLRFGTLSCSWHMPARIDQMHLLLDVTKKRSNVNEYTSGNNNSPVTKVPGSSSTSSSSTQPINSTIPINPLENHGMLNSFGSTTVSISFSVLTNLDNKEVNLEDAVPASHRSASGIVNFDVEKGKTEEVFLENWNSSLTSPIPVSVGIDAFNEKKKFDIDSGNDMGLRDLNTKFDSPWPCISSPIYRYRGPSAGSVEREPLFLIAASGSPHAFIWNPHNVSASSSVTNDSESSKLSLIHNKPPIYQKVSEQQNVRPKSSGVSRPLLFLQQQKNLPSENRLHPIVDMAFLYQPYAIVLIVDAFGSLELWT

T1: Atg38 (SPBC660.08), fission yeast (S. pombe) (UniProt O94427)
T1 sequence: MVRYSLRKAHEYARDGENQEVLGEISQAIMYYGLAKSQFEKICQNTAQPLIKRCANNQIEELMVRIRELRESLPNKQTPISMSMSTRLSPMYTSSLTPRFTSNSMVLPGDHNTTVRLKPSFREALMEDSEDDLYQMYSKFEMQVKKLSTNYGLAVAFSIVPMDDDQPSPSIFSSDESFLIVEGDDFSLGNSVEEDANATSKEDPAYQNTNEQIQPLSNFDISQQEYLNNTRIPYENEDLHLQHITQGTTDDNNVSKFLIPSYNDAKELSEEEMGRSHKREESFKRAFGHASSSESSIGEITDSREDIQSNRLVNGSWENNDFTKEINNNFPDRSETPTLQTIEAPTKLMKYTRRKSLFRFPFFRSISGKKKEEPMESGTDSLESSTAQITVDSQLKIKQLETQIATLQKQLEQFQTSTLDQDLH

T2: Atg14, fission yeast (S. pombe) (UniProt O42862)
T2 sequence: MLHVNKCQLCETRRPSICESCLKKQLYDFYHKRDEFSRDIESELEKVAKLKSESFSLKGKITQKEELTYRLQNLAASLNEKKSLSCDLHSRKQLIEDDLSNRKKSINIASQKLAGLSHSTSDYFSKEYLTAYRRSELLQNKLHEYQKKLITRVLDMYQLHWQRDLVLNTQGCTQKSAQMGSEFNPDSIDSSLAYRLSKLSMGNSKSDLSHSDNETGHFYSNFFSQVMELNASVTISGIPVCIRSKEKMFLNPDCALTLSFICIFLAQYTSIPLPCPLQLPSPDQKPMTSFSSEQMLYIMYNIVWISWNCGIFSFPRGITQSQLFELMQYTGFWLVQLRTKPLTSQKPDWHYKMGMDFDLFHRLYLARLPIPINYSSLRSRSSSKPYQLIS

T3: Atg6, fission yeast (S. pombe) (UniProt P87117)
T3 sequence: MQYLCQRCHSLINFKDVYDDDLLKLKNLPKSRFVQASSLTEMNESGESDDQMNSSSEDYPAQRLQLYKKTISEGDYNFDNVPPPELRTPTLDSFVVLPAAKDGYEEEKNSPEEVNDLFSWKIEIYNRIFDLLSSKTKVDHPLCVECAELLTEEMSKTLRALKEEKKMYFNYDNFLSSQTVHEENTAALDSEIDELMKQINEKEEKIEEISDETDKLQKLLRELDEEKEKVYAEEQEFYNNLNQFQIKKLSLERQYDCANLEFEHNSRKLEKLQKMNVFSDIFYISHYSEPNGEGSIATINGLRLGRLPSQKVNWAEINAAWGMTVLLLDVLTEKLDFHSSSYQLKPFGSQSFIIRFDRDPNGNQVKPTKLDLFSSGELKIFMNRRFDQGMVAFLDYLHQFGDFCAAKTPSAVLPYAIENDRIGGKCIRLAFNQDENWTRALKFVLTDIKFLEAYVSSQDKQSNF

B1: Atg38 (SPBC660.08), fission yeast (protein, UniProt O94427 1-424)
chain: T1 sequence
B2: Vps34, fission yeast (protein, UniProt P50520 1-801)
chain: MDRLVFSYCPSSKVTARFLVKFCFIEYQDSQEPCICTIQLFSGNESGSLMQKCFVSKIPNKSLLPTELSKISTHEWLDFGVTVSELSLNAKFVVSAWKPSFNDEEVYEFVGCTTYRLFDENNLLRQGLQKIPLQTSKEIKKYSPTSLELEQVKEINRLDGLLLKLQLGDVPSVNWLDDISFGKIKDFRSKHMSLVTIPILYLDFLQFSFPVVFQRSYYPKSENRVYYSSFDLELNLDSPAELKHRRLVRSQRNGPLDKDLKPNSKIRKELESILSYPPSEELSLEEKDLIWKFRFYLTRNKKAMTKFLKSVVWTDSSEVNQALSLLDSWTEIDIDDALELLSPSFVHPKVRAYAVSRLETASNEELLLYLLQLVQALRYDNPISSDERFQPSPLALFLVNRAISSPSIGNDLYWYLVVEIEDEPVSKLFSSVMFLFQKELSKSVEGRLIRETLSAQAKFVEKLLRISKSVQSFRGTRLKKIEYLKVLLEDHKYHLLDFHALPLPLDPSVNIVGIIPDACTVFKSTMQPLRLLFKCQDGSKYPIIFKNGDDLRQDQLVIQILTLMDKLLKKEKLDLHLKPYRILATGPTHGAVQFVPSKTLATILAEYHGSVLAYLRENNPDDGLNSANYGIDPVAMDNYVRSCAGYCVITYLLGVGDRHLDNLLITKDGHFFHADFGYILGRDPKLFSPAMKLSKEMVEGMGGYNSPFYQQFKSYCYTTFTALRKSSNLILNLFSLMVDANIPDIKFDKEKVVYKVKERFCLQMSESDAIKYFEQLINDSVSALFPQIIDRMHNLAQYMRS
B3: Atg6, fission yeast (protein, UniProt P87117 1-464)
chain: T3 sequence
B4: Vps38, fission yeast (protein, UniProt O60149 1-474)
chain: MSLELPGNYRLSRLKSIQIRNVQEIQNHSKFAINTTENLWKRDVQLKRAISEGTIRIFISLHVQSKKLPVYITETSGNANHIFYVDEKVTEKLQKYRHEEYFIVRTWCSSSSHAFKLHKEWKILRYDSNFRYIGNDPVFAVCHIRNGLLCEFNDGVYIYTTSQSSDIMRQTSFPKSASTYSIDRRKDGYTIQKITRILKLAECIDEMHIAKHEIRAHFQEEEFQQIRLMHKRMLLRDEKIDELAKLEHLWQKQINSITQMRTKFDKTKSWLSSKRNTLNKSKESLQKDEAEYVELANSLKTKVETNIEIRILMAHAIRMHVSHLSKIYPIQPSPGNHDEFTIRNLRLSFEPDKINNVEMAASIGFLAHLLQTLSKYLEKELAYPILCASSRSSILDTLTPDIPTRIFPLYPATRPIELFEHAIYLLNQDVNDFLETFGLPIDQSMDILRNFKKLLQFILSGQHLSFVQVTSTAP

What was measured:
Assay in all cases: affinity purification with mass spectrometry; bait purified from S. pombe cells (approximately 1000–2000 OD600 units) harvested after 2 h of starvation; performed as described previously [43]
[1] = target: T1, Atg38 (SPBC660.08), fission yeast (S. pombe)
[2] = target: T2, Atg14, fission yeast (S. pombe)
[3] = target: T3, Atg6, fission yeast (S. pombe)

| Molecule | binding [1] | binding [2] | binding [3] |
| --- | --- | --- | --- |
| Vps15, fission yeast (from UniProt O42900 1-1706) | binds |  |  |
| B1 |  | binds | binds |
| B2 | binds |  |  |
| B3 | binds |  |  |
| B4 | no binding |  |  |
